Assay results taken from PMC12669767.
No constants are given. Whether binding was seen depends on the method and setting. Binding seen in cells or lysates may run through a third protein. Some entries that bind do so weakly or less than the wild type. Where a sequence is shown, tags or fusion partners need not be part of it.

Biological target: T1, ALFA-tagged TXNIP re-expressed in RPE1 TXNIP^KO cells (human), Q9H3M7
T1 chain: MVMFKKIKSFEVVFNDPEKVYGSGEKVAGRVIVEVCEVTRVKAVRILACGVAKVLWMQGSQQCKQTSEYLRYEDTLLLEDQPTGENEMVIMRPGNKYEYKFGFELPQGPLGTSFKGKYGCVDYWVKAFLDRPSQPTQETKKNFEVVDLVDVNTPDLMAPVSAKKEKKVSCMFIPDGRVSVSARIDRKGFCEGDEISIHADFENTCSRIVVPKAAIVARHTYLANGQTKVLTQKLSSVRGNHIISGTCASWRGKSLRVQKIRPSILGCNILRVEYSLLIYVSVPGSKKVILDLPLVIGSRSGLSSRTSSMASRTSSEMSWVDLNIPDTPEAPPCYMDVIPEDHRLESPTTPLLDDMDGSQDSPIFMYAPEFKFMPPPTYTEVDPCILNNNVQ
Test: co-IP; non-denaturing IP of ALFA-TXNIP from RPE1 TXNIP^KO cells on ALFA Selector ST beads, 3 h at 4 °C; 30 mM Tris pH 7.5, 120 mM NaCl, 20 mM NaF, 0.5% octyl-β-D-glucopyranoside; Western blot; WT cells without ALFA-TXNIP as control
Conditions: remark: other sources report otherwise

binding: binds
B1: NEDD4L, endogenous in RPE1, Q96PU5 1-975 (enzyme)
chain: MATGLGEPVYGLSEDEGESRILRVKVVSGIDLAKKDIFGASDPYVKLSLYVADENRELALVQTKTIKKTLNPKWNEEFYFRVNPSNHRLLFEVFDENRLTRDDFLGQVDVPLSHLPTEDPTMERPYTFKDFLLRPRSHKSRVKGFLRLKMAYMPKNGGQDEENSDQRDDMEHGWEVVDSNDSASQHQEELPPPPLPPGWEEKVDNLGRTYYVNHNNRTTQWHRPSLMDVSSESDNNIRQINQEAAHRRFRSRRHISEDLEPEPSEGGDVPEPWETISEEVNIAGDSLGLALPPPPASPGSRTSPQELSEELSRRLQITPDSNGEQFSSLIQREPSSRLRSCSVTDAVAEQGHLPPPSAPAGRARSSTVTGGEEPTPSVAYVHTTPGLPSGWEERKDAKGRTYYVNHNNRTTTWTRPIMQLAEDGASGSATNSNNHLIEPQIRRPRSLSSPTVTLSAPLEGAKDSPVRRAVKDTLSNPQSPQPSPYNSPKPQHKVTQSFLPPGWEMRIAPNGRPFFIDHNTKTTTWEDPRLKFPVHMRSKTSLNPNDLGPLPPGWEERIHLDGRTFYIDHNSKITQWEDPRLQNPAITGPAVPYSREFKQKYDYFRKKLKKPADIPNRFEMKLHRNNIFEESYRRIMSVKRPDVLKARLWIEFESEKGLDYGGVAREWFFLLSKEMFNPYYGLFEYSATDNYTLQINPNSGLCNEDHLSYFTFIGRVAGLAVFHGKLLDGFFIRPFYKMMLGKQITLNDMESVDSEYYNSLKWILENDPTELDLMFCIDEENFGQTYQVDLKPNGSEIMVTNENKREYIDLVIQWRFVNRVQKQMNAFLEGFTELLPIDLIKIFDENELELLMCGLGDVDVNDWRQHSIYKNGYCPNHPVIQWFWKAVLLMDAEKRIRLLQFVTGTSRVPMNGFAELYGSNGPQLFTIEQWGSPEKLPRAHTCFNRLDLPPYETFEDLREKLLMAVENAQGFEGVD
